The source gives many values for each of these; only a part stands here.
Test system: 867 cancer cell lines
Assay: PRISM assay (barcoded cell line screening, 5 days);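 further: top test concentration 10 mM in eight-point dilution series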
Format: cell-based
Design: scale not given here
Description: The principle of the PRISM assay has been described elsewhere and was conducted as previously outlined by the PRISM team at the Broad Institute.^[ [14], [31] ^] In PRISM (MTS027) experiments, KG‐FP‐003 was tested across 867 different cancer cell lines. Cells were treated with eight concentration gradients, ranging from 4.6 nM to […], in triplicate dilutions over a period of five days. Each plate was treated with 20 µM bortezomib as a positive control and DMSO as a negative control. Three replicate experiments were performed for each compound. The resulting data were analyzed using GraphPad PRISM 9.5.

## CNC(=O)c1cc2c(c(F)c1-c1c(Cl)c(F)cc3c1C[C@@](CN[C@H]1CC[C@H](C(=O)N4CCC(CC5CCN(C(=O)COc6ccc(N7CCC(=O)NC7=O)c(C)c6)CC5)CC4)CC1)(c1ccccc1)O3)[C@@H](O)[C@@H](C)C2 [KG-FP-003]
H157_UPPER_AERODIGESTIVE_TRACT ACH-001347 PR300
  KG-FP-003-AUC: 0.66
H357_UPPER_AERODIGESTIVE_TRACT ACH-001509 PR300
  KG-FP-003-AUC: 0.63
H376_UPPER_AERODIGESTIVE_TRACT ACH-001510 PR300
  KG-FP-003-AUC: 0.75
H413_UPPER_AERODIGESTIVE_TRACT ACH-001511 PR300
  KG-FP-003-AUC: 1.00
HA1E_KIDNEY ACH-001310 PR300
  KG-FP-003-AUC: 0.61
HAC2_OVARY ACH-001512 PR300
  KG-FP-003-AUC: 0.63
HARA_LUNG ACH-000843 PR500
  KG-FP-003-AUC: 0.77
HCA1_CERVIX ACH-001513 PR300
  KG-FP-003-AUC: 0.88
HCC15_LUNG ACH-000878 PR500
  KG-FP-003-AUC: 0.92
HCC38_BREAST ACH-000276 PR500
  KG-FP-003-AUC: 0.85
HCC44_LUNG ACH-000667 PR500
  KG-FP-003-AUC: 0.49
HCC56_LARGE_INTESTINE ACH-000467 PR500
  KG-FP-003-AUC: 0.99
HCC78_LUNG ACH-000562 PR500
  KG-FP-003-AUC: 0.78
HCC95_LUNG ACH-000454 PR500
  KG-FP-003-AUC: 0.95
HCC515_LUNG ACH-000872 PR300
  KG-FP-003-AUC: 0.81
HCC827_LUNG ACH-000012 PR500
  KG-FP-003-AUC: 0.81
HCC1143_BREAST ACH-000374 PR500
  KG-FP-003-AUC: 0.92
HCC1195_LUNG ACH-000868 PR500
  KG-FP-003-AUC: 0.98
HCC1359_LUNG ACH-000901 PR500
  KG-FP-003-AUC: 0.96
HCC1395_BREAST ACH-000699 PR300
  KG-FP-003-AUC: 0.99
HCC1419_BREAST ACH-000277 PR500
  KG-FP-003-AUC: 1.00
HCC1428_BREAST ACH-000352 PR500
  KG-FP-003-AUC: 0.96
HCC1438_LUNG ACH-000891 PR500
  KG-FP-003-AUC: 0.89
HCC1806_BREAST ACH-000624 PR500
  KG-FP-003-AUC: 0.88
HCC1937_BREAST ACH-000223 PR500
  KG-FP-003-AUC: 0.97
HCC1954_BREAST ACH-000859 PR300
  KG-FP-003-AUC: 0.95
HCC4006_LUNG ACH-000066 PR500
  KG-FP-003-AUC: 0.63
HCSC1_CERVIX ACH-001516 PR300
  KG-FP-003-AUC: 0.99
HCT15_LARGE_INTESTINE ACH-000997 PR500
  KG-FP-003-AUC: 1.00
HCT116_LARGE_INTESTINE ACH-000971 PR500
  KG-FP-003-AUC: 0.88
HDMB03_CENTRAL_NERVOUS_SYSTEM ACH-001349 PR300
  KG-FP-003-AUC: 0.99
HDQP1_BREAST ACH-000643 PR500
  KG-FP-003-AUC: 0.72
HEC1A_ENDOMETRIUM ACH-000954 PR500
  KG-FP-003-AUC: 0.55
HEC1B_ENDOMETRIUM ACH-000941 PR500
  KG-FP-003-AUC: 0.91
HEC1_ENDOMETRIUM ACH-001517 PR300
  KG-FP-003-AUC: 0.98
HEC6_ENDOMETRIUM ACH-000984 PR500
  KG-FP-003-AUC: 0.96
HEC50B_ENDOMETRIUM ACH-000831 PR300
  KG-FP-003-AUC: 0.94
HEC59_ENDOMETRIUM ACH-000994 PR500
  KG-FP-003-AUC: 0.72
HEC108_ENDOMETRIUM ACH-000990 PR500
  KG-FP-003-AUC: 0.53
HEC116_ENDOMETRIUM ACH-001518 PR300
  KG-FP-003-AUC: 0.70
HEC151_ENDOMETRIUM ACH-000972 PR500
  KG-FP-003-AUC: 0.63
HEC251_ENDOMETRIUM ACH-000996 PR500
  KG-FP-003-AUC: 0.63
HEC265_ENDOMETRIUM ACH-000946 PR500
  KG-FP-003-AUC: 0.68
HEL9217_HAEMATOPOIETIC_AND_LYMPHOID_TISSUE ACH-000005 PR300
  KG-FP-003-AUC: 0.88
HEL_HAEMATOPOIETIC_AND_LYMPHOID_TISSUE ACH-000004 PR300
  KG-FP-003-AUC: 0.83
HEP3B217_LIVER ACH-000625 PR500
  KG-FP-003-AUC: 0.99
HEPG2_LIVER ACH-000739 PR300
  KG-FP-003-AUC: 0.80
HEYA8_OVARY ACH-000542 PR500
  KG-FP-003-AUC: 0.77
HGC27_STOMACH ACH-000847 PR500
  KG-FP-003-AUC: 1.00
HH_HAEMATOPOIETIC_AND_LYMPHOID_TISSUE ACH-000061 PR300
  KG-FP-003-AUC: 0.89
HKA1_SKIN ACH-001521 PR300
  KG-FP-003-AUC: 1.00
HKGZCC_BILIARY_TRACT ACH-001852 PR300
  KG-FP-003-AUC: 0.94
HLF_LIVER ACH-000393 PR500
  KG-FP-003-AUC: 1.00
HMC18_BREAST ACH-000721 PR500
  KG-FP-003-AUC: 0.94
HOS_BONE ACH-000613 PR300
  KG-FP-003-AUC: 0.58
HOS_BONE ACH-000613 PR500
  KG-FP-003-AUC: 0.53
HOTHC_THYROID ACH-002041 PR300
  KG-FP-003-AUC: 0.85
HPAC_PANCREAS ACH-000270 PR500
  KG-FP-003-AUC: 0.88
HPAFII_PANCREAS ACH-000094 PR300
  KG-FP-003-AUC: 0.79
HPBALL_HAEMATOPOIETIC_AND_LYMPHOID_TISSUE ACH-000942 PR300
  KG-FP-003-AUC: 0.96
HS294T_SKIN ACH-000014 PR500
  KG-FP-003-AUC: 0.86
HS611T_HAEMATOPOIETIC_AND_LYMPHOID_TISSUE ACH-000069 PR300
  KG-FP-003-AUC: 0.94
HS683_CENTRAL_NERVOUS_SYSTEM ACH-000067 PR300
  KG-FP-003-AUC: 0.98
HS729_SOFT_TISSUE ACH-000133 PR300
  KG-FP-003-AUC: 0.59
HS729_SOFT_TISSUE ACH-000133 PR500
  KG-FP-003-AUC: 0.39
HS766T_PANCREAS ACH-000178 PR500
  KG-FP-003-AUC: 1.00
HS852T_SKIN ACH-000274 PR500
  KG-FP-003-AUC: 0.86
HS939T_SKIN ACH-000814 PR500
  KG-FP-003-AUC: 1.00
HS944T_SKIN ACH-000632 PR500
  KG-FP-003-AUC: 0.99
HSC1_SKIN ACH-001523 PR300
  KG-FP-003-AUC: 0.85
HSC2_UPPER_AERODIGESTIVE_TRACT ACH-000472 PR500
  KG-FP-003-AUC: 0.56
HSC3_UPPER_AERODIGESTIVE_TRACT ACH-000778 PR500
  KG-FP-003-AUC: 0.73
HSC5_SKIN ACH-001524 PR300
  KG-FP-003-AUC: 0.79
HSKTC_OVARY ACH-002038 PR300
  KG-FP-003-AUC: 0.91
HT3_CERVIX ACH-001525 PR300
  KG-FP-003-AUC: 0.99
HT29_LARGE_INTESTINE ACH-000552 PR500
  KG-FP-003-AUC: 0.99
HT55_LARGE_INTESTINE ACH-000926 PR500
  KG-FP-003-AUC: 1.00
HT115_LARGE_INTESTINE ACH-000986 PR300
  KG-FP-003-AUC: 1.00
HT144_SKIN ACH-000322 PR500
  KG-FP-003-AUC: 0.99
HT1080_SOFT_TISSUE ACH-000054 PR500
  KG-FP-003-AUC: 0.45
HT1197_URINARY_TRACT ACH-000547 PR300
  KG-FP-003-AUC: 0.99
HT1376_URINARY_TRACT ACH-000724 PR500
  KG-FP-003-AUC: 0.47
HTMMT_ENDOMETRIUM ACH-002046 PR300
  KG-FP-003-AUC: 0.56
HT_HAEMATOPOIETIC_AND_LYMPHOID_TISSUE ACH-000914 PR300
  KG-FP-003-AUC: 0.84
HUCCT1_BILIARY_TRACT ACH-000976 PR500
  KG-FP-003-AUC: 0.41
HUG1N_STOMACH ACH-000239 PR300
  KG-FP-003-AUC: 0.83
HUH1_LIVER ACH-000475 PR300
  KG-FP-003-AUC: 0.99
HUH6_LIVER ACH-000671 PR500
  KG-FP-003-AUC: 0.89
HUH7_LIVER ACH-000480 PR500
  KG-FP-003-AUC: 0.80
HUH28_BILIARY_TRACT ACH-000808 PR500
  KG-FP-003-AUC: 0.66
HUO9_BONE ACH-001526 PR300
  KG-FP-003-AUC: 0.98
HUPT3_PANCREAS ACH-000118 PR500
  KG-FP-003-AUC: 0.60
HUPT4_PANCREAS ACH-000213 PR300
  KG-FP-003-AUC: 0.55
HUT78_HAEMATOPOIETIC_AND_LYMPHOID_TISSUE ACH-000509 PR300
  KG-FP-003-AUC: 0.99
IALM_LUNG ACH-000672 PR500
  KG-FP-003-AUC: 0.84
ICC4_BILIARY_TRACT ACH-001844 PR300
  KG-FP-003-AUC: 0.99

— article PMC12752627, “Discovery of a Potent and Selective TEAD Degrader with Durable Degradation Activity” (Advanced Science, 2025)
